According to paper PMC9071441:
Results are given in words; binding and its absence hold for the method and conditions named. In cells and extracts the contact can be indirect. A result given as binding can be weak or reduced; the word gives no strength.

Amino acid sequences for entries named in this document (tags omitted). A change or cut given only in a name is not applied to a line headed by its entry.
UniProt Q9JKD8: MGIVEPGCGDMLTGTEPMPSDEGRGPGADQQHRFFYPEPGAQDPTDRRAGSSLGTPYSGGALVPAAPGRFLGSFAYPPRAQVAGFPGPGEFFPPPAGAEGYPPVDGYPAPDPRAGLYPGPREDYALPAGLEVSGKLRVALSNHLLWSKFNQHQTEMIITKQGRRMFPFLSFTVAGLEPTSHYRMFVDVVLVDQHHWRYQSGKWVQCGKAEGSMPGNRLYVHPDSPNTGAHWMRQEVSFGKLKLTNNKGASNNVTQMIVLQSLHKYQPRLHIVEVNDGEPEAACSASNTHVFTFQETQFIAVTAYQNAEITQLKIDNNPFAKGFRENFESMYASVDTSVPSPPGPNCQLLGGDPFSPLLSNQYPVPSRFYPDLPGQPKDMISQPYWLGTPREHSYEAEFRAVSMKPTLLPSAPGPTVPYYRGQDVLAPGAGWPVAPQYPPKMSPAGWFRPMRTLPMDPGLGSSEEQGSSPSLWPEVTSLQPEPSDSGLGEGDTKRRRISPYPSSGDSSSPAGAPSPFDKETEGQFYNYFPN
UniProt P23772: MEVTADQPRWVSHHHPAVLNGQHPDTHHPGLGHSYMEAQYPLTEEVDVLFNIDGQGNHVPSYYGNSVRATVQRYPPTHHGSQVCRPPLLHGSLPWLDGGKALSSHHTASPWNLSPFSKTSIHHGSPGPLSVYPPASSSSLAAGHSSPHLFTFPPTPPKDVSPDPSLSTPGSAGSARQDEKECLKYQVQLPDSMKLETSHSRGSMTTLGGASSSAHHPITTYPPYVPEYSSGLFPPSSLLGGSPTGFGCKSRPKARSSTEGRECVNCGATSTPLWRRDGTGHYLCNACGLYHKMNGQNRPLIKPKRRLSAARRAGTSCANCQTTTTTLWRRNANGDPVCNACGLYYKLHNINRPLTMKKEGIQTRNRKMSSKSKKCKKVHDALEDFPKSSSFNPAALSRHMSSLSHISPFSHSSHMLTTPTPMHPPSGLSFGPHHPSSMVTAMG

Molecular target: mNeonGreen-tagged T-bet DNA binding domain (aa 135-326) Q160A (mouse) (UniProt Q9JKD8)
Experiment: co-IP; HEK293T cells transiently transfected with mNeonGreen-tagged and HA-tagged proteins; lysates (300 mM NaCl, 0.5% IGEPAL CA-630) treated with benzonase, diluted to 150 mM NaCl, mNeonGreen-Trap magnetic agarose beads 1 hr at 4°C; washes with 150 mM and 500 mM NaCl; immunoblot with anti-HA

Substance: full-length GATA3 with C-terminal double HA tag (from UniProt P23772 1-443)
- binding: binds
